## Screening data, single-dose tests

Amino acid sequences for entries named in this document (tags omitted). Residues count along the entry.
UniProt A4I591, 1-473: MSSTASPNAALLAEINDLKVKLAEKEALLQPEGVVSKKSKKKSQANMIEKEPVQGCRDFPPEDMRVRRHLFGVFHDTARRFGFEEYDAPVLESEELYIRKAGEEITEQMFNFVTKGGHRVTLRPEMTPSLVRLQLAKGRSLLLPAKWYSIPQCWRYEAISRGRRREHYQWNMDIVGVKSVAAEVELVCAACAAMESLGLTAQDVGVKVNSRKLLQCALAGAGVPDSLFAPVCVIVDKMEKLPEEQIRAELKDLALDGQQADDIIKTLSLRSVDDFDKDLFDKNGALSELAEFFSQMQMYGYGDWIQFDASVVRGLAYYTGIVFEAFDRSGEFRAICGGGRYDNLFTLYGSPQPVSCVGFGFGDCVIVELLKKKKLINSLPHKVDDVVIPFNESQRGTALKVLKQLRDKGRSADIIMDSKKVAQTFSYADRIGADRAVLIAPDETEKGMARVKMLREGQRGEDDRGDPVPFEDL

LiHisRS: 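Enzyme assay of histidyl-tRNA synthetase; the read-out is not stated. Target: Histidine-tRNA ligase, Leishmania infantum (UniProt A4I591). Compounds at 30 µM. The record gives no direction; compounds that gave an IC50 in retests scored well above the rest, so higher reads as stronger inhibition. The assay is labelled LdHisRS but filed under L. infantum. Size under these conditions: about 69,000 compounds, about 410 of them at 50% or above in at least one test.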
Toxoplasma: 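Assay of Toxoplasma gondii numbers, read through their beta-galactosidase reporter with a colour substrate. Concentration: 10 µM. The record gives no direction; the compounds picked for IC50 retests had high values, so higher reads as fewer parasites. Size under these conditions: about 67,000 compounds, about 260 of them at 50% or above in at least one test.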

Values are the deposited “Percent Effect”, in %. The record does not define 0% and 100%; most values in the screen are far below 50% and negative numbers occur (in some assays of this library far below -100). This is an unselected part of the compounds tested. A dash means the value is not listed here; it may have been measured.

| Compound | LiHisRS | Toxoplasma |
|---|---|---|
| `Cc1noc(C)c1CN1CCN(CC2CC2)c2ncccc2C1` | 10.95 | - |
| `COCCC(=O)Nc1ccnc(Oc2ccccc2)c1` | 8.571 | -1.357 |
| `Cc1c(C(=O)N2CCCC(C(=O)c3nccn3C)C2)c[nH]c(=O)c1C#N` (centres unmarked) | 2.655 | 3.163 |
| `N#Cc1ccc(N2CCCN(CCCn3cncn3)CC2)cc1` | 10.99 | 11.22 |
| `Cc1nnsc1C(=O)N1CC(c2nc3ccccc3[nH]2)C1` | 23.38 | -14.07 |
| `COCC(=O)N1CCN(c2ccc(C(=O)OC)cc2)CC1C` (centres unmarked) | 12.5 | -0.3234 |
| `CCc1nnc(Nc2cc(C)nc(C3CCN(c4cnccn4)C3)n2)s1` (centres unmarked) | 7.092 | 9.302 |
| `O=C(Nc1nc[nH]n1)c1cc(-c2ccc(F)cc2)n[nH]1` | 8.696 | 7.86 |
| `Cc1nc(-c2cccc(C(=O)O)c2)cc(C2CCCN(C(C)C)C2)n1` (centres unmarked) | 8.571 | 4.052 |
| `COCCCNC(=O)Cc1cc(-c2ccc(Cl)cc2)on1` | 11.11 | 6.197 |
| `CC(C)(C)C(=O)Nc1ccc(Oc2ccsc2C(=O)O)cc1` | 14.58 | 5.142 |
| `Cc1cc(Br)cnc1N(C)CC1CCOC1` (centres unmarked) | -1.064 | 1.815 |
| `CN1CC(Nc2ccc(Br)cc2C#N)CCC1=O` (centres unmarked) | 10.26 | 13.55 |
| `CC(C)OC(=O)N1CCC(Cc2ccc(C(=O)O)cc2)C1` (centres unmarked) | 11.5 | -6.958 |
| `CCN(Cc1noc(CC(C)C)n1)Cc1ncccc1C(=O)O` | 5.128 | 11.92 |
| `Cn1ccnc1CN1CCc2c(COCC3CC3)nn(C)c2C1` | 13.46 | -35.94 |
| `c1ccc(Cc2nc(CN3CCCC3Cn3cncn3)cs2)cc1` (centres unmarked) | 27.12 | -12.91 |
| `CN(CC(=O)NC1(C)CCS(=O)(=O)C1)Cc1ccc(Br)cc1` (centres unmarked) | -1.724 | -11.83 |
| `COc1ccc(C(NC(=O)c2cccc[n+]2[O-])C2CC2)cc1` (centres unmarked) | 4.712 | 0.06242 |
| `COc1cccc(S(=O)(=O)CCN2CCN(CCO)CC2)c1` | 14.88 | -4.842 |
| `O=C(O)C(F)(F)F.O=C(O)C(F)(F)F.c1ccc(CCN2CCn3cc(Cn4cccn4)nc3C2)cc1` | - | -2.685 |
| `Cc1cc(NC(=O)c2nc(N3CCCC3)ncc2Cl)nc(C(C)C)n1` | 7.692 | 0.1727 |
| `CC(C)c1cc(CN(C)C(=O)CN2CCC(C(N)=O)CC2)no1` | 3.297 | -18.1 |
| `CN(Cc1nc(CS(C)(=O)=O)no1)c1ccccc1` | 10.85 | 14.41 |
| `Cc1ccc2nc(C)cc(NCCNS(=O)(=O)c3cn(C)nc3C)c2c1` | 5.674 | 14.51 |
| `O=C(O)C(F)(F)F.O=C(O)C(F)(F)F.[H][C@]12CN(Cc3ccncc3)C[C@@]1([H])OCCN(S(C)(=O)=O)C2` | - | 1.386 |
| `O=C(C1CC1)N1CCC2(CC1)CNCCO2` | 10.26 | 0.266 |
| `CN(C)Cc1nnc(C(=O)N(C)Cc2ccc(C(F)(F)F)cc2)o1` | 9.677 | -1.787 |
| `O=C(O)C(F)(F)F.[H][C@@]12COC[C@]1(CN1CCOCC1)CN(S(=O)(=O)c1ccccc1)C2` | - | 1.199 |
| `CN(C1CCCC1)C(C)(C)C(=O)NCCNC(N)=O` | 10.26 | 3.134 |
| `CCC1c2ccccc2CCN1CCCS(C)(=O)=O` (centres unmarked) | -3.109 | -0.3442 |
| `COC(=O)c1ccc(C2SCC(=O)Nc3ccsc32)cc1` (centres unmarked) | 15 | -7.908 |
| `CC(c1ncc(-c2ccccc2)o1)N1CCN(C(=O)N(C)C)CC1` (centres unmarked) | 10.84 | -2.211 |
| `COCCN1C(=O)CO[C@H]2CN(S(=O)(=O)c3ccccc3)C[C@H]21` | 25 | - |
| `CC(C)(C)C(=O)NCCC1CN(Cc2ccccc2F)CCO1` (centres unmarked) | 20.43 | -1.638 |
| `CC(NCCN1CCN(C(=O)C2CCCC2)CC1)c1nccs1` (centres unmarked) | 0 | -0.413 |
| `CCC(NC(=O)NCC(=O)Nc1ccc(F)cc1)c1ccncc1` (centres unmarked) | 18.28 | 5.025 |
| `CN(C)CCN1CCOCC2(CCCN(C(=O)c3ccccc3)C2)C1.O=C(O)C(F)(F)F.O=C(O)C(F)(F)F` (centres unmarked) | - | -3.211 |
| `COC(=O)CNC(=O)CCc1cc(Cl)cs1` | 11.61 | 8.14 |
| `O=C(NC1CCCCC1)N1CCc2onc(COc3cccnc3)c2C1.O=C(O)C(F)(F)F` | - | -24.48 |
| `O[C@@H]1C[C@@](CNCc2cccc(Cl)c2)(COc2cccnc2)C[C@@H]1O` | 4.054 | - |
| `CCC(=O)N1C[C@@H](C(=O)NC)[C@H](c2ccnc(N3CCCC3)n2)C1` | 5.369 | - |
| `CCc1noc(C(C)N2CCN(C(=O)CN3CCOCC3)CC2)n1` (centres unmarked) | 8.621 | -19.88 |
| `Fc1ccccc1Oc1nccnc1C1CCN(C2CCOCC2)CC1` | 4.255 | -15.49 |
| `O[C@H]1CN(Cc2ccc3c(c2)OCCO3)CC[C@@]12CCCO2` | 7.368 | -13.64 |
| `Cc1nn(C)c(C)c1CCC(=O)NCc1cccnc1OC1CCCC1` | 15.38 | -5.914 |
| `CC(=O)Nc1ccc(CNC(C)c2c(C)nn(C)c2C)cc1` (centres unmarked) | 27.14 | -4.37 |
| `Nc1cc2c(nn1)CCN(C(=O)CCc1ccc3c(c1)OCO3)C2` | 16.67 | -47.54 |
| `CC(NC(=O)CCCc1nc(C(C)(C)C)no1)c1nnc2n1CCC2` (centres unmarked) | 16.39 | -3.652 |
| `Cc1nn(C)c(C)c1OCC(=O)NCC(O)c1ccsc1` (centres unmarked) | 10.45 | -2.185 |
| `O=C(O)C(F)(F)F.O=C(c1ccc[nH]1)N1CCCn2c(CNC3CCC3)nnc2C1` | - | -4.78 |
| `[H][C@@]12CC(=O)N(Cc3ccncc3)[C@@]1([H])CCN2Cc1cnn(C)c1` | - | -0.377 |
| `Oc1cc(-c2nccs2)nc(C2CCN(Cc3cccs3)CC2)n1` | 11.43 | 11.69 |
| `Cc1nc(N)sc1C(=O)N1CCC(C(O)Cc2ccccc2)CC1` (centres unmarked) | 26.57 | -8.182 |
| `O=C(Cc1ccncc1)N1CCC2(CC1)CC(c1ccccc1)CO2` (centres unmarked) | 17.82 | - |
| `CNC(=O)c1cccnc1NCCOc1ccc(CC#N)cc1` | 6.061 | -0.2887 |
| `O=C(O)C(F)(F)F.[H][C@]12CN(CCOC)C[C@@]1(C(=O)O)CCCN(c1cc(OC)ncn1)C2` | - | 0.4515 |
| `CS(=O)(=O)N1CCN2C(=O)N(C3CCOCC3)C[C@H]2C1` | 29.73 | - |
| `O=C(NCC1CC[C@@]2(CNCCOC2)O1)c1cnccn1` (some centres unmarked) | -5.263 | 5.165 |
| `CNc1ncccc1C(=O)N1CCN(C)C2(CCN(C)CC2)C1` | 23.94 | 0.6472 |
| `O=C(CN1CCCS(=O)(=O)CC1)NCc1ccccc1F` | 6.25 | 1.983 |
| `O=C(NCC1CCN(Cc2ccsc2)CC1)NC1CC1` | 16.5 | -2.882 |
| `O=C(O)C(F)(F)F.[H][C@@]12CCN(CCOCc3ccccc3)C[C@@]1([H])[C@H](C(=O)N(C)C)CCO2` | - | -3.242 |
| `Cc1ccc(C)c2c(O)cc(CNCc3ccc(S(N)(=O)=O)cc3)nc12` | 18.25 | 5.066 |
| `OCC(CO)Nc1ccc2c(Cl)ccc(Cl)c2n1` | 11.76 | 2.291 |
| `Cc1nc2ccccc2n1Cc1cc(C(=O)NC2CCOC2)no1` (centres unmarked) | 5.495 | -1.842 |
| `O=C(NCc1cccc(F)c1)N1CCc2ncnc(NC3CC3)c2CC1` | 0.9091 | -1.455 |
| `COc1ccc2nnc(CCCC(=O)NCc3ccccc3)n2n1` | 9.783 | 19 |
| `CC1CN(S(=O)(=O)c2ccc(F)cc2)c2cccnc2O1` (centres unmarked) | 3.896 | 7.206 |
| `c1ccc(Oc2nccc3occc23)c(CN2CCCCC2)c1` | 23.66 | -6.42 |
| `CCn1cc(Cl)c(C(=O)NCCOC)n1` | 1.724 | -65.93 |
| `Cc1ccc(NC2(C(=O)N3CCn4cncc4C3)CCCCC2)cc1C` | 24.49 | 14.01 |
| `Cn1nc(C2CCCN2)c2c(C(=O)NC3CC3)cc(C3CC3)nc21` (centres unmarked) | 13.79 | -7.335 |
| `CN(Cc1cc(-c2cccnc2)no1)C(=O)C1CCCN1S(C)(=O)=O` (centres unmarked) | 14.17 | 2.968 |
| `COCCN1CCn2cc(CNC(=O)c3cnn(C)c3)nc2C1` | 17.28 | - |
| `CC(C)(C)CC(=O)NCCCn1cncn1` | 13.51 | -2.273 |
| `Cc1ccsc1CN1CC2(CCN(C(=O)C3CC3)CC2)CC1C(=O)O` (centres unmarked) | 9.677 | 3.055 |
| `CNc1cc(N2CCCC2CNCc2cccc(C#N)c2)ncn1` (centres unmarked) | 17.65 | -1.033 |

The first 4 entries again:

Compound,LiHisRS,Toxoplasma
Cc1noc(C)c1CN1CCN(CC2CC2)c2ncccc2C1,10.95,-
COCCC(=O)Nc1ccnc(Oc2ccccc2)c1,8.571,-1.357
Cc1c(C(=O)N2CCCC(C(=O)c3nccn3C)C2)c[nH]c(=O)c1C#N (centres unmarked),2.655,3.163
N#Cc1ccc(N2CCCN(CCCn3cncn3)CC2)cc1,10.99,11.22

The values are deposited in ChEMBL (CHEMBL3988442, “University of Dundee, Small-Polar-MMV Screening Library” (2021)).